Results are given in words; binding and its absence hold for the method and conditions named. In cells and extracts the contact can be indirect. Some results given as binding are weak or reduced against the parent protein; the word gives no strength.
Molecular target: myosin light chain kinase (human (endogenous in HASM cells)) (UniProt Q15746)
Test: co-IP; MLCK immunoprecipitated from precleared HASM cell extracts (antibody overnight, protein A/G PLUS agarose 3 h); washed four times in 50 mM Tris-HCl pH 7.6, 150 mM NaCl, 0.1% Triton X-100; immunoblot for integrin β1

By UniProt entry, the sequences of proteins in these tests, tags left out. Where a name states a change or a piece, a line headed by the entry shows the natural chain unless it says otherwise.
UniProt Q15746: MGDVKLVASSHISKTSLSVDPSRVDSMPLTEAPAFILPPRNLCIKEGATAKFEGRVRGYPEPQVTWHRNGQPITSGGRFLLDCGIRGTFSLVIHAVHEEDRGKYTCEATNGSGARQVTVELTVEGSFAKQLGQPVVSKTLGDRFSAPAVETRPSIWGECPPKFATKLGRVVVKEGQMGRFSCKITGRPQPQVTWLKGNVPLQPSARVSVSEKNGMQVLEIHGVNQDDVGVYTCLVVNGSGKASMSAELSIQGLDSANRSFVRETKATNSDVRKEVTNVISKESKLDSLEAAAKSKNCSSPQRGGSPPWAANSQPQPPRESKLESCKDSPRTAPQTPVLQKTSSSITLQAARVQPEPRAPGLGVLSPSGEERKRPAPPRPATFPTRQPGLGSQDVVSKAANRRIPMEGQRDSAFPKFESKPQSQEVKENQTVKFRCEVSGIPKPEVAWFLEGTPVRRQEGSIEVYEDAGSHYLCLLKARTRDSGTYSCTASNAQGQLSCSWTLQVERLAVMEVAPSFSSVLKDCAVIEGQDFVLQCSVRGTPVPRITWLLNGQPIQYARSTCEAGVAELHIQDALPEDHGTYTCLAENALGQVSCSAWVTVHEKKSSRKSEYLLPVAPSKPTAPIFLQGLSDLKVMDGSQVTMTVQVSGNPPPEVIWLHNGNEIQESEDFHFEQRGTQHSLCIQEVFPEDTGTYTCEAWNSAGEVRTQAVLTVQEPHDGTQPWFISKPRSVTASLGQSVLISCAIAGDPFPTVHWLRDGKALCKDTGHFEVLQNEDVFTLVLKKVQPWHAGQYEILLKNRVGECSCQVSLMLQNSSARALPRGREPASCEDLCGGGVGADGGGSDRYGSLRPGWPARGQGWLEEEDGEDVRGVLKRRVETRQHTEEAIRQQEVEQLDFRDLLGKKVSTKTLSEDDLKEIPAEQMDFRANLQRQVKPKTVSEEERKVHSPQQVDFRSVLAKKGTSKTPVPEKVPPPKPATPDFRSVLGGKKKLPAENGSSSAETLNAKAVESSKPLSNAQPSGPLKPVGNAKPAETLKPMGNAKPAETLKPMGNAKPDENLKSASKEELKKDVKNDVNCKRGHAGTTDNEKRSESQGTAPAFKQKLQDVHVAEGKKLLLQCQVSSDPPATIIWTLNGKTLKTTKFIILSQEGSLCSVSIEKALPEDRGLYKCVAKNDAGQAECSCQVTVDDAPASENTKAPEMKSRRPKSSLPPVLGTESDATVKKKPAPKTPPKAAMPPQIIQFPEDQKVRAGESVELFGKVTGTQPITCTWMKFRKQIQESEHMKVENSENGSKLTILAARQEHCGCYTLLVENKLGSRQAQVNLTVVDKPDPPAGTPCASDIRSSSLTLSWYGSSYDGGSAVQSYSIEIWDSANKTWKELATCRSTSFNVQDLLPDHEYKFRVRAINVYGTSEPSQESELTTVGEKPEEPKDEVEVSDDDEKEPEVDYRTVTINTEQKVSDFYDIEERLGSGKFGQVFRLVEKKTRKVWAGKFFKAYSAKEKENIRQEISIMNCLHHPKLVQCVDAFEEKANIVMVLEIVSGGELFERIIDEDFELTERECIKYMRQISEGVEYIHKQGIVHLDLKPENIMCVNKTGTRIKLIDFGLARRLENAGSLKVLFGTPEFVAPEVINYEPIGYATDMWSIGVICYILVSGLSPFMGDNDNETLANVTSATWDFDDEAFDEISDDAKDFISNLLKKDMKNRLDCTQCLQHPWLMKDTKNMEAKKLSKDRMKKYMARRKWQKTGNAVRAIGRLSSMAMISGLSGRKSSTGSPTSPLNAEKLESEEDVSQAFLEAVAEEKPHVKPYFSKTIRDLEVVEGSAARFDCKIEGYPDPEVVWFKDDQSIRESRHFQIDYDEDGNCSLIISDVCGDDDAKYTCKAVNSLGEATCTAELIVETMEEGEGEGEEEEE
UniProt P05556: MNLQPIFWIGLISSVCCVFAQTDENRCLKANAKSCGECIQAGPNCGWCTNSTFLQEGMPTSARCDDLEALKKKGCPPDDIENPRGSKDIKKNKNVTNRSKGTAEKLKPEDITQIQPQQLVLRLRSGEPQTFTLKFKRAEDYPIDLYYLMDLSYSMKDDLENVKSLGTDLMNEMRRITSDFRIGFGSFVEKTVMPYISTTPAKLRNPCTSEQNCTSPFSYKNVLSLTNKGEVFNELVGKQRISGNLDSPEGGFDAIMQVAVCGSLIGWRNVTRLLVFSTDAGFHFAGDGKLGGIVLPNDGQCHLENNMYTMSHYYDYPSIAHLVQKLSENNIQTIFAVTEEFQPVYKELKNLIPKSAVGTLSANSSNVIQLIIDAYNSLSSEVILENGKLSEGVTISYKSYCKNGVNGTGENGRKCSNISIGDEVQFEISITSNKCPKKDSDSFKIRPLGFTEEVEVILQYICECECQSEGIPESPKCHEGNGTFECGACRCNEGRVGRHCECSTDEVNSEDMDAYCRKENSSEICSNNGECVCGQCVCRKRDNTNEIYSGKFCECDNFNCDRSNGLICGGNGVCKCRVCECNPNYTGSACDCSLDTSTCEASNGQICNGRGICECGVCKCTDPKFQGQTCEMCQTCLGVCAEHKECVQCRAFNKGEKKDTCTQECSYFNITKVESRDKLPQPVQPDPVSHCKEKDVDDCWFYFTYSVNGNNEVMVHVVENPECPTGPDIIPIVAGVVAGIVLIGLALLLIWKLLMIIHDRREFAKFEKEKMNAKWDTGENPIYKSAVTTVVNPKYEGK

integrin β1 (from UniProt P05556 21-798) (receptor)
binding: binds

— paper PMC9367404
